{"source": "patent US12600943B2", "about": "“Innervated organoid compositions and methods of making same” (priority 2019, dated 2026)", "system": "ENCC-derived neurons in HCO explants", "experiment": "Ex vivo neuromuscular coupling test of HCO muscle strips (DMPP stimulation)", "format": "cell-based, human", "details": "DMPP 10 μM", "note": "At least one compound was matched to its structure with a doubt left.", "data": [{"smiles": "C[N+]1(C)CCN(c2ccccc2)CC1", "note": "[DMPP, dimethylphenylpiperazinium]", "values": [{"measurement": "muscle contraction", "setting": "HCOs alone (no ENCCs)", "result": "no contraction was observed"}, {"measurement": "muscle contraction", "setting": "HCOs+ENCCs", "result": "induced muscle contraction"}]}]}
